Measured values reported in ChEMBL document CHEMBL3611981, “Discovery of potent nitrotriazole-based antitrypanosomal agents: In vitro and in vivo evaluation” (Bioorg Med Chem, 2015).

Sequences of proteins named here, by UniProt entry; tags and fusion partners are left off.
UniProt P08684, whole entry: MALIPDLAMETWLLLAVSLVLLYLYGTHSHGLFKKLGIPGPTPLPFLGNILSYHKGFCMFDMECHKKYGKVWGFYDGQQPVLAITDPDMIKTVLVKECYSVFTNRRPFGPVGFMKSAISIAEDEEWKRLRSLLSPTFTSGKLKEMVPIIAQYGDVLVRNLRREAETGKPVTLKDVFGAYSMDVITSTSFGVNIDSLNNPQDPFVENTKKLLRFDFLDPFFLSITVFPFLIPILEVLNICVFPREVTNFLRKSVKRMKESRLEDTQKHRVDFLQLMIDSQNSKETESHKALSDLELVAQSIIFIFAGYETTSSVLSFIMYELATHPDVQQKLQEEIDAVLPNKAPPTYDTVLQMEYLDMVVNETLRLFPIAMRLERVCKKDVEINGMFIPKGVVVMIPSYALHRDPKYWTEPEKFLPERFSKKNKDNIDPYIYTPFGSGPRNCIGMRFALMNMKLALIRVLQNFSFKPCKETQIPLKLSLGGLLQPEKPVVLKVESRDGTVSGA
UniProt P11712, whole entry: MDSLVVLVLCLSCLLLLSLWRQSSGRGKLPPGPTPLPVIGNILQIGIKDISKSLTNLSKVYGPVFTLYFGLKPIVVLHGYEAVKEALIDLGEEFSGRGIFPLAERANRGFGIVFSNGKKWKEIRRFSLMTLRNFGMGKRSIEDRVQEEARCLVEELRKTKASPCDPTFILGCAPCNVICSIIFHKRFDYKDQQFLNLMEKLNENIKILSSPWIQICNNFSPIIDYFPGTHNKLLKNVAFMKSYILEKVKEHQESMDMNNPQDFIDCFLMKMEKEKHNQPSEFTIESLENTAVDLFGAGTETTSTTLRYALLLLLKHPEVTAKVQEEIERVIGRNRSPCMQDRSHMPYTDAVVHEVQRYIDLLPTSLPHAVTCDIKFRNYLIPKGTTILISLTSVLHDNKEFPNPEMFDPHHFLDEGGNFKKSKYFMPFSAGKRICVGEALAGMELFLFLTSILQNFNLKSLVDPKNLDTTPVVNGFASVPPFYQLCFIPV
UniProt P10635, whole entry: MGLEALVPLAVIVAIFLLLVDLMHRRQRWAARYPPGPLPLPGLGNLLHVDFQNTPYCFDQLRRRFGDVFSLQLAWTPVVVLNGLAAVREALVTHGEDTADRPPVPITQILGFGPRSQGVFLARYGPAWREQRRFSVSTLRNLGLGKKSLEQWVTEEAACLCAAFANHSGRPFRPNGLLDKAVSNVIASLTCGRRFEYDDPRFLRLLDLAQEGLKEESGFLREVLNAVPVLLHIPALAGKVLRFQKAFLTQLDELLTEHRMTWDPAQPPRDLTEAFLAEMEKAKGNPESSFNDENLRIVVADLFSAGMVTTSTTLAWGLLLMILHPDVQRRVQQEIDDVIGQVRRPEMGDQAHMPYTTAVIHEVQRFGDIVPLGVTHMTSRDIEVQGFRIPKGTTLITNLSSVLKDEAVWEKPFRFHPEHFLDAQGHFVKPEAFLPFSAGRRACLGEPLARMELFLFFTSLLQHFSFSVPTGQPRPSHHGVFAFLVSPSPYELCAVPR
UniProt P33261, whole entry: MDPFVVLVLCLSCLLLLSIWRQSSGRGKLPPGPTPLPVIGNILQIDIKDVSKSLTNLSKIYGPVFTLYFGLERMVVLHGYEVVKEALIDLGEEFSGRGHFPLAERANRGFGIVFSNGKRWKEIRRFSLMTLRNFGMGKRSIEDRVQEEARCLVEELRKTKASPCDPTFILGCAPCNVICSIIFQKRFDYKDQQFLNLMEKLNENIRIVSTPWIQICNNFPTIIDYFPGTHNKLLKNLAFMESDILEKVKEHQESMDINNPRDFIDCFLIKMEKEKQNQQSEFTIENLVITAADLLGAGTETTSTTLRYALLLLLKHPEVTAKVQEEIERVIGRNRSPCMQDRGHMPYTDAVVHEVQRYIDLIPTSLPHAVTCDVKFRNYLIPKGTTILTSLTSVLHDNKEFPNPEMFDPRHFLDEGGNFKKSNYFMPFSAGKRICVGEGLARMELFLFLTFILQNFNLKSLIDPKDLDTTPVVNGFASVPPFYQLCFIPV

How the values were obtained:
Cytochrome P450 3A4 = Cytochrome P450 3A4 (Homo sapiens, UniProt P08684); assay: Inhibition of CYP3A4 (unknown origin)
Cytochrome P450 2C9 = Cytochrome P450 2C9 (Homo sapiens, UniProt P11712); assay: Inhibition of CYP2C9 (unknown origin)
Cytochrome P450 2D6 = Cytochrome P450 2D6 (Homo sapiens, UniProt P10635); assay: Inhibition of CYP2D6 (unknown origin)
Cytochrome P450 2B6 = target: T1, Cytochrome P450 2B6 (Homo sapiens, UniProt P20813); assay: Inhibition of CYP2B6 (unknown origin)
T1 sequence (P20813 whole entry): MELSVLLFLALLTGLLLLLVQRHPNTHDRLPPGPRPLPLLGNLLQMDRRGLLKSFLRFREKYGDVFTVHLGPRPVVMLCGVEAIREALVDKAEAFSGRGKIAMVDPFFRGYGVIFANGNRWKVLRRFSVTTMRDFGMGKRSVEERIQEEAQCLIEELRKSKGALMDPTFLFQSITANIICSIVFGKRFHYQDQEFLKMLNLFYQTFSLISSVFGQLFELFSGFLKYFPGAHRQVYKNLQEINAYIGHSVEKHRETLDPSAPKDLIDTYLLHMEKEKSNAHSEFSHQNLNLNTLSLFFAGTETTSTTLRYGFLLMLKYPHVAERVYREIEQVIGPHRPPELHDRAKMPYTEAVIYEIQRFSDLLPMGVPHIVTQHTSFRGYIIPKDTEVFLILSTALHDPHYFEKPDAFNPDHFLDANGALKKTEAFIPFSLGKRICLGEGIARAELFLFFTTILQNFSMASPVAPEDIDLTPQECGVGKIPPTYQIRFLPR

Cytochrome P450 2C19 = Cytochrome P450 2C19 (Homo sapiens, UniProt P33261); assay: Inhibition of CYP2C19 (unknown origin)

Measured: IC50

O=C(Cn1cnc([N+](=O)[O-])n1)Nc1cccc(-c2ccccc2)c1
> 20 µM: Cytochrome P450 3A4 | Cytochrome P450 2C9 | Cytochrome P450 2D6 | Cytochrome P450 2B6 | Cytochrome P450 2C19
